Measurements from patent publication US20020076693A1, “Novel cell surface receptor for HIV retroviruses, therapeutic and diagnostic uses” (priority 1997, published 2002).
Some of these results come from one statement about several compounds together.

Test system: HIV-1 LAI (HeLa P4) or HIV-1 Ba—L (HeLa P4-C5)
Experiment: Binding and entry of HIV particles in HeLa cells (cell-associated p24)
Assay type: cell-based
Settings: p24 after trypsin treatment; α-CD4 5 μg/ml, TASP 1 μM

In the case of 5[Kψ(CH2N)PR]-TASP, the “inhibition of HIV entry into HeLa cells” value is reported as “more than 75%”.
